PubChem BioAssay AID743458 | Peter MacCallum Cancer Centre – 2014
Shown is one part, drawn at random, of about 1,800 reagents tested. 732 of all reagents (41%) were called active. 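Calls are per siRNA reagent; a gene was deemed confirmed only if most of its four siRNAs scored.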 Unmarked entries are inactive. The numbers tell different reagents against one gene apart. No sequences are given here.

Aim: 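Retest earlier hits with independent siRNAs per gene for restoring vorinostat sensitivity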 (follow-up of hits)
Cell system: human HCT116-VR colon cancer cells made resistant to vorinostat
Knock-down reagent: single siRNA or pool against human genes, 25 nM per single siRNA
Timing: about 72 h after transfection, including 24 h of drug
Challenge: vorinostat, 2.5 µM final, for 24 h
Detection: 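Live-cell fluorescent viability and luminescent caspase 3/7 activity after vorinostat treatment, background subtracted, mean of duplicate plates, as fold change over mock-transfected wells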
Reading the numbers: viability relative to mock: higher = more living cells than mock; caspase activity relative to mock: higher = more apoptosis than mock
Active means: 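An siRNA counts as active if classed as reduced viability or as caspase activation, otherwise inactive; a hit class needed wells that remained healthy in the absence of drug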

For METRNL (GeneID 284207) #1, what does the deposit list?
viability relative to mock: 0.72 (active); caspase activity relative to mock: 3.15; viability hit class: no change; caspase hit class: caspase activation

With METRNL (GeneID 284207) #2, what does the deposit list?
viability relative to mock: 0.88; caspase activity relative to mock: 1.29; viability hit class: no change; caspase hit class: no change

How did the screen score METRNL (GeneID 284207) #3?
viability relative to mock: 0.38 (active); caspase activity relative to mock: 3.62; viability hit class: reduced viability; caspase hit class: caspase activation

For METRNL (GeneID 284207) #4, what was measured?
viability relative to mock: 0.9; caspase activity relative to mock: 1.7; viability hit class: no change; caspase hit class: no change

What did the screen give for DUS1L (GeneID 64118) #1?
viability relative to mock: 0.27 (active); caspase activity relative to mock: 4.05; viability hit class: reduced viability; caspase hit class: caspase activation

What is on record for DUS1L (GeneID 64118) #2?
viability relative to mock: 0.95; caspase activity relative to mock: 2.06; viability hit class: no change; caspase hit class: no change

What did the screen give for DUS1L (GeneID 64118) #3?
viability relative to mock: 0.72; caspase activity relative to mock: 1.63; viability hit class: no change; caspase hit class: no change

For DUS1L (GeneID 64118) #4, what does the deposit list?
viability relative to mock: 0.84; caspase activity relative to mock: 0.76; viability hit class: no change; caspase hit class: no change

Which result is listed for MED28 (GeneID 80306) #1?
viability relative to mock: 0.48; caspase activity relative to mock: 4.08; viability hit class: no change; caspase hit class: no change

With MED28 (GeneID 80306) #2, what was measured?
viability relative to mock: 0.87 (active); caspase activity relative to mock: 4.32; viability hit class: no change; caspase hit class: caspase activation

With MED28 (GeneID 80306) #3, what was measured?
viability relative to mock: 0.7; caspase activity relative to mock: 1.02; viability hit class: no change; caspase hit class: no change

With MED28 (GeneID 80306) #4, what was measured?
viability relative to mock: 0.99 (active); caspase activity relative to mock: 3.08; viability hit class: no change; caspase hit class: caspase activation

For BCL3 (GeneID 602) #1, how do the results read?
viability relative to mock: 0.38 (active); caspase activity relative to mock: 4.05; viability hit class: reduced viability; caspase hit class: caspase activation

How did the screen score BCL3 (GeneID 602) #2?
viability relative to mock: 0.76; caspase activity relative to mock: 1.57; viability hit class: no change; caspase hit class: no change

What is on record for BCL3 (GeneID 602) #3?
viability relative to mock: 0.86; caspase activity relative to mock: 1.27; viability hit class: no change; caspase hit class: no change

Which result is listed for BCL3 (GeneID 602) #4?
viability relative to mock: 1.09; caspase activity relative to mock: 1.3; viability hit class: no change; caspase hit class: no change

No new results follow: entries from further up.
MED28 (GeneID 80306) #2: viability relative to mock = 0.87 (active); caspase activity relative to mock = 4.32; viability hit class = no change; caspase hit class = caspase activation
MED28 (GeneID 80306) #3: viability relative to mock = 0.7; caspase activity relative to mock = 1.02; viability hit class = no change; caspase hit class = no change
